According to paper PMC5520498:
Results are given in words; binding and its absence hold for the method and conditions named. In cells and extracts the contact can be indirect. Some entries that bind do so weakly or less than the wild type.

Sequences of proteins named here, by UniProt entry; tags and fusion partners are left off.
UniProt Q13263: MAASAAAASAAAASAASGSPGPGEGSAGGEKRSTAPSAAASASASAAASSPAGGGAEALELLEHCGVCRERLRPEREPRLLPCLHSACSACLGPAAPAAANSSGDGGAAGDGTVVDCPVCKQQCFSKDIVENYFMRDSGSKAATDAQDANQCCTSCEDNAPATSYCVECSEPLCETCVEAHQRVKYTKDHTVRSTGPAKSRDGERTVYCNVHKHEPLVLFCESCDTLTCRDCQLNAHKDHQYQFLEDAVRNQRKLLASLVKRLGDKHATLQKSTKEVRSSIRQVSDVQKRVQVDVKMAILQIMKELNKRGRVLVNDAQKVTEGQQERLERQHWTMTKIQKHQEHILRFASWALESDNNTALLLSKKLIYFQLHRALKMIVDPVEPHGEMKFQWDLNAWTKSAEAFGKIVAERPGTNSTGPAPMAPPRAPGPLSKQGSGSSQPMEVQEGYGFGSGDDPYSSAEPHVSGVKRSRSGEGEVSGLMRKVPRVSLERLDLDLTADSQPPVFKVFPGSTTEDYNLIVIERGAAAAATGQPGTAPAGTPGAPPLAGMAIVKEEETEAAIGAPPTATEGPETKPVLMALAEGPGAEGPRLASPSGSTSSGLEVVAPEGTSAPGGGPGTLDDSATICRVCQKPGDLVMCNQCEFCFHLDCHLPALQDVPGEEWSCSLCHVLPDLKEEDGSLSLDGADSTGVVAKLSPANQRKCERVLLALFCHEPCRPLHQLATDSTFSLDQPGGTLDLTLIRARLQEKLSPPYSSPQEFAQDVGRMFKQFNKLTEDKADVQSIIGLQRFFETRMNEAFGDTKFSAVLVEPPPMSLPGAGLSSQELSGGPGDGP

Target: TRIM28 (tripartite motif-containing protein 28), endogenous in HepG2 cells (human (endogenous in HepG2)) (UniProt Q13263)
Assay: co-IP; co-immunoprecipitation of endogenous proteins from HepG2 cell lysate (reciprocal for FBP1 and TRIM28; anti-TRIM28 antibody for MAGE-A3 and MAGE-C2); RIPA lysate, Protein G agarose, western blot

B1: MAGE-C2, endogenous in HepG2 cells (protein, UniProt Q9UBF1 1-373)
chain: MPPVPGVPFRNVDNDSPTSVELEDWVDAQHPTDEEEEEASSASSTLYLVFSPSSFSTSSSLILGGPEEEEVPSGVIPNLTESIPSSPPQGPPQGPSQSPLSSCCSSFSWSSFSEESSSQKGEDTGTCQGLPDSESSFTYTLDEKVAELVEFLLLKYEAEEPVTEAEMLMIVIKYKDYFPVILKRAREFMELLFGLALIEVGPDHFCVFANTVGLTDEGSDDEGMPENSLLIIILSVIFIKGNCASEEVIWEVLNAVGVYAGREHFVYGEPRELLTKVWVQGHYLEYREVPHSSPPYYEFLWGPRAHSESIKKKVLEFLAKLNNTVPSSFPSWYKDALKDVEERVQATIDTADDATVMASESLSVMSSNVSFSE
binding: binds
